In US8524666:
No constants are given. Whether binding was seen depends on the method and setting. Binding seen in cells or lysates may run through a third protein. Some binding calls cover weakened binding; strength is not graded here.

By UniProt entry, the sequences of proteins in these tests, tags left out. Where a name states a change or a piece, a line headed by the entry shows the natural chain unless it says otherwise. Residues count along the entry.
UniProt P08670: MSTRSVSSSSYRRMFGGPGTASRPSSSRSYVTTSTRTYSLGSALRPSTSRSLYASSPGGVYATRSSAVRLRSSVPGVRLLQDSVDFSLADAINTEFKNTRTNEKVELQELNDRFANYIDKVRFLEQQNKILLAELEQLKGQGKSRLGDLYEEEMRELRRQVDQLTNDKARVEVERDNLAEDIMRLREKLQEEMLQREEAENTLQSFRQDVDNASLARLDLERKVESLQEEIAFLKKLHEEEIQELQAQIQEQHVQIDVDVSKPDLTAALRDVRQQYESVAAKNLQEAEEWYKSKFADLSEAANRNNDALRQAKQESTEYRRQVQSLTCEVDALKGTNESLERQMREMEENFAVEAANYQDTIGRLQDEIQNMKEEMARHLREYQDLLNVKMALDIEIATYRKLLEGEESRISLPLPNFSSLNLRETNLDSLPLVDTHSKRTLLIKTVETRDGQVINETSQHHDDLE
UniProt P16070, residues 21-132: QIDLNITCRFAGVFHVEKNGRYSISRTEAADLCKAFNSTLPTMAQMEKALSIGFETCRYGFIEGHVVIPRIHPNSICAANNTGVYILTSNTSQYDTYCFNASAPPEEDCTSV

How the values were obtained:
[1] = biological target: endogenous vimentin of HUVEC (human) (UniProt P08670); assay: GST pull-down from HUVEC membrane lysate, western blot with mAb V9; also silver staining and peptide mass fingerprinting
[2] = biological target: endogenous vimentin of HUVEC (human) (UniProt P08670); assay: GST pull-down from HUVEC lysate
[3] = biological target: full length human vimentin expressed from pcDNA3.1/MycHis B in MCF-7 cells (human) (UniProt P08670); assay: GST pull-down from transfected MCF-7 lysate, western blot
[4] = biological target: vimentin deletion mutant containing aa 1-245 of SEQ ID NO: 1 (human) (UniProt P08670); assay: as above
[5] = biological target: endogenous vimentin of HUVEC (human) (UniProt P08670); assay: GST pull-down from surface-biotinylated HUVEC lysate, then streptavidin precipitation and western blot with mAb V9
[6] = biological target: endogenous vimentin of HUVEC (human) (UniProt P08670); assay: GST pull-down from HUVEC membrane lysate, western blot with mAb V9

| binding [1] | binding [2] | binding [3] | binding [4] | binding [5] | binding [6] | Substance |
| --- | --- | --- | --- | --- | --- | --- |
| binds | binds | binds | binds | binds |  | GST tagged CD44-HABD R41AR78SY79S mutant (CD44-3MUT) (from UniProt P16070 21-132) |
|  | binds | binds | binds |  | binds | GST-tagged CD44 hyaluronic acid binding-domain (CD44-HABD) (from UniProt P16070 21-132) |
